Assay results from the supplement of paper PMC12889115.
Some of the results follow. These are raw signals, not scaled to a control.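 First-pass screen: polymyxin B was added at a level that permeabilizes the Salmonella outer membrane while sparing the inner membrane. DMSO wells, with and without polymyxin B, defined maximum growth. Because plates differed from one another, each plate's data were ranked separately and the compounds with the lowest OD600 were carried forward as hits.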

Tested on: Salmonella enterica serovar Typhimurium SL1344
Assay: bacterial growth OD600 after 18 h with compound and polymyxin B; higher = more bacterial growth (less inhibition)
Details: 50 µM, Mueller-Hinton broth

Row | Structure (SMILES) | bacterial growth OD600 (polymyxin B 0.75 µg/mL) | bacterial growth OD600 (polymyxin B 1 µg/mL)
1 | C=CC[C@H]1CC(C)=C[C@H](CC=C)N1C(=O)CCC1(Cc2ccc(SC)cc2)CCC(=O)N1 (some centres undefined) | 0.039 | 
2 | CCN(CC1CCCN(CCc2cccc(F)c2)C1)C(=O)c1ccccc1 (centres undefined) |  | 0.994
3 | CCN1CC(CN(C)Cc2cn(-c3ccccc3C)nc2-c2ccc(OC)c(F)c2)CC1=O (centres undefined) |  | 0.728
4 | Cc1nc(CN2CCCC(CO)(Cc3ccc(F)cc3)C2)c[nH]1 (centres undefined) | 0.991 | 
5 | COCCN1C(=O)CC(CC(=O)N2CCC(C(O)Cc3ccccc3)CC2)(c2ccccc2C)C1=O (centres undefined) | 0.843 | 
6 | O=C(c1ccccc1OC1CCN(Cc2ncc[nH]2)CC1)N1CCCCC1 |  | 1.01
7 | O=C(CCC1CCCN(C(=O)CCc2ccncc2)C1)NCc1ccccc1Cl (centres undefined) |  | 0.978
8 | COCc1ccc(C(=O)Nc2ccc(-c3nc(CNC(=O)C(C)Oc4ccccc4)c(C)o3)cc2)o1 (centres undefined) | 0.355 | 
9 | Cc1ccc(CN2CCN(Cc3ccccc3F)C(CCO)C2)cc1 (centres undefined) |  | 1
10 | O=C(Nc1ccnn1C1CCN(Cc2cc3ccccc3o2)CC1)c1ccccc1 |  | 0.821
11 | COc1ccc(-c2noc(CN3CCC(CCN4CCCC4=O)CC3)n2)cc1 |  | 0.858
12 | COc1cccc([C@@H](C)NC(=O)c2coc(COc3cccc(F)c3)n2)c1 |  | 0.81
13 | CCS(=O)(=O)c1ncc(CN(C)Cc2ccc(C)o2)n1Cc1ccccc1 | 0.763 | 
14 | COC(=O)CCCNC(=O)c1csc2nc(-c3ccccc3OC)cn12 | 0.802 | 
15 | CCOC(=O)C1CCN(C(=O)c2cn(C(C)C)cc(C(=O)NCC3CCCCC3)c2=O)CC1 | 0.917 | 
16 | CCS(=O)(=O)Nc1cc(C(=O)N(C)CC(O)c2ccccc2)c2c(c1)nc(-c1ccccc1)n2C (centres undefined) | 0.806 | 
17 | Cc1ccc(C)c(CN2CCN(Cc3ccc(C)o3)C(CCO)C2)c1 (centres undefined) |  | 0.951
18 | COc1ccc(CCN2C(=O)O[C@@H]3CN(C(=O)NC4CCCCC4)C[C@@H]32)cc1 |  | 0.84
19 | COc1cc(CC2(CCC(=O)NC(C)c3cnn(-c4ccccc4)c3)CCC(=O)N2)ccc1F (centres undefined) | 0.811 | 
20 | CN(C(=O)c1cc(Cl)ccc1OC1CCN(C2CCCC2)CC1)C1CCOC1 (centres undefined) | 0.855 | 
21 | O=C(NC1CCCCCC1)c1ccc(OC2CCN(C(=O)C3CC3)CC2)cc1 |  | 1
22 | O=C1N(Cc2ccc(F)cc2)CCCC1(O)CN1CCC2(CC1)OCCO2 (centres undefined) |  | 0.851
23 | COc1cccc(CN2Cc3ccccc3OC(C)C2)c1OC (centres undefined) | 0.886 | 
24 | O=C1CCC(CCNCc2ccccc2F)N1CC1(N2CCOCC2)CCCCCC1 (centres undefined) | 0.779 | 
25 | C[C@@H]1CN(C2(C(=O)NCCc3cn[nH]c3)Cc3ccccc3C2)C[C@H](C)O1 | 0.776 | 
26 | COC(=O)C1CCN(C(=O)CC(c2ccccc2)c2ccc(OC)cc2)CC1 (centres undefined) |  | 0.558
27 | CCC1CN(CCC(=O)NC(c2ccncc2)c2ccccc2C)Cc2cc(OC)ccc2O1 (centres undefined) | 0.731 | 
28 | CCOC(=O)C1(Cc2ccccc2F)CCCN(C(=O)c2cc(OC)cc(OC)c2)C1 (centres undefined) |  | -0.001
29 | COCCn1cnc2cc(NC(=O)C3CCCCC3)cc(C(=O)N(Cc3ccccc3)CC3CC3)c21 | 0.009 | 

Quoted at random: 2 entries already listed, in no set order.
Row | Structure (SMILES) | bacterial growth OD600 (polymyxin B 0.75 µg/mL) | bacterial growth OD600 (polymyxin B 1 µg/mL)
11 | COc1ccc(-c2noc(CN3CCC(CCN4CCCC4=O)CC3)n2)cc1 |  | 0.858
23 | COc1cccc(CN2Cc3ccccc3OC(C)C2)c1OC (centres undefined) | 0.886 | 
